Assay results published in paper PMC12040169 (PLOS Biology, 2025).
This is one part of the list.

What follows are compounds tested on T1, CTL2-GFP (C. trachomatis L2/434/Bu, GFP-expressing). Conditions: bulk GFP, single well; 28.5 h, 10 µM; inhibitor.
T1 construct: L2/434/Bu, GFP-expressing
Parameters: species or system HeLa; Intracellular C. trachomatis growth in HeLa cells, bulk GFP fluorescence relative to DMSO

Row | Structure (SMILES) | % of control remaining
1 | CC(=O)Nc1ccc(-c2cncc(NC3CCC(O)CC3)n2)cc1 (stereo not shown) [CBK065886] | 190.718%
2 | Clc1ccccc1-c1nnc(Cn2c3ccc(Br)cc3c3nc4ccccc4nc32)o1 [CBK269091] | 114.748%
3 | O=C(Nc1ccccc1[N+](=O)[O-])c1cc(S(=O)(=O)NCc2ccccc2)c(Cl)cc1Cl [CBK263240] | 95.6236%
4 | CN(C)S(=O)(=O)NC1CC(C)(C)Cc2c1cnn2-c1ccc(F)cc1 (stereo not shown) [CBK306646] | 103.483%
5 | COc1cc(/C=N/NC(=O)CCN2CCN(C)CC2)cc(OC)c1O [CBK261500] | 110.484%
6 | COc1ccc(C(N)C2(O)CCN(Cc3ccccc3)CC2)cc1 (stereo not shown) [CBK091386] | 124.042%
7 | CN1CCN(c2nc(-c3cc4ccccc4s3)cn3ccnc23)CC1 [CBK066388] | 93.2809%
8 | Cc1cccn2cc(CC(=O)NC3(C#N)CCCCC3)nc12 [CBK306252] | 102.729%
9 | Cc1onc(-c2ccccc2)c1CNC(=O)Cn1cc(C)c(=O)[nH]c1=O [CBK144094] | 133.476%
10 | CN(C)c1ccc(NC(=O)C(Cc2ccccc2)N2C(=O)c3ccccc3C2=O)cc1 (stereo not shown) [CBK262413] | 103.362%
11 | Cc1ccc(S(=O)(=O)/N=C(/NCc2ccc(Cl)cc2)Nc2nc(C)cc(C)n2)cc1 [CBK263785] | 105.877%
12 | N#Cc1cc(CN2CCCN(S(=O)(=O)c3ccc(C(=O)c4ccccc4)cc3)CC2)ccc1F [CBK062768] | 83.2407%
13 | COC(=O)c1ccc(N2CCN(C(C)c3nnc(C)o3)C(C)C2)cc1 (stereo not shown) [CBK304926] | 121.384%
14 | CCN1CCN(C(=O)c2ccc(CN(c3ccc(C)c(C)c3)S(C)(=O)=O)cc2)CC1 [CBK267132] | 167.904%
15 | Cc1cc(OCCCCNCCO)ccc1Cl [CBK033516] | 93.7722%
16 | Cn1ncc2ccc(-c3nnn[nH]3)cc21 [CBK304776] | 121.001%
17 | COc1ncc(-c2cn3ccnc3c(N3CCN(CCO)CC3)n2)c(OC)n1 [CBK037869] | 88.7637%
18 | CC1CCc2n[nH]c(C(=O)N3CCC(O)C(C)C3)c2C1 (stereo not shown) [CBK283207] | 114.213%
19 | CCC(C)NCc1cccc(Oc2ncccn2)c1 (stereo not shown) [CBK288090] | 110.146%
20 | CC1(C)C2C(=O)C(c3ccccn3)=C(N)N2C(C)(C)C1(C)C (stereo not shown) [CBK022153] | 120.93%
21 | Fc1cc2c3c(c1)c1c(n3CCO2)CCNCC1 [CBK018018C] | 92.4055%
22 | O=C(NCc1ccccn1)c1cc(-c2ccc(Cl)cc2)on1 [CBK116558] | 157.457%
23 | c1cnc2cc(Oc3ccc4nccnc4c3)ccc2n1 [CBK267266] | 128.565%
24 | COc1ccc(CNC(=O)N2CCN(c3cc(C(F)(F)F)ccn3)CC2)cc1OC [CBK162344] | 113.764%
25 | O=C(Nc1ccccc1)c1ccc(N2CCN(c3ccccn3)CC2)c(S(=O)(=O)N2CCOCC2)c1 [CBK266810] | 125.458%

Row | Structure (SMILES) | % of control remaining
26 | COC(=O)C1=C(Cn2ccc(C(F)(F)F)n2)NC(=O)NC1c1cc(C)ccc1C (stereo not shown) [CBK268792] | 72.8295%
27 | COc1ccc(S(=O)(=O)N(c2ccccc2)C2CCNCC2)cc1OC [CBK165076T] | 141.188%
28 | OC(Cn1ccnc1)C1CCCCC1 (stereo not shown) [CBK010092] | 141.207%
29 | O=C1NCCCCC1N1CCS(=O)(=O)CC1 (stereo not shown) [CBK017083] | 135.087%
30 | Cc1c(Cl)ccc2c(C(=O)Nc3ccc(S(=O)(=O)N4CCOCC4)cc3)cc(-c3cccnc3)nc12 [CBK267718] | 139.339%
31 | CN(C)S(=O)(=O)Nc1cccc2cc[nH]c12 [CBK159505] | 96.7631%
32 | COc1ncc(C(=O)NCc2cccnc2N(C)C2CCCCC2)cn1 [CBK306870] | 174.897%
33 | CC1(OCCCN2CCCCC2)SC(NC2CC3CCC2C3)=NC1=O (stereo not shown) [CBK115611] | 128.674%
34 | O=C(O)C(CCCCN1C(=O)c2ccccc2C1=O)N1C(=O)c2ccccc2C1=O (stereo not shown) [CBK265250] | 100%
35 | CC1=NN(c2ccc(S(N)(=O)=O)cc2)C(=O)/C1=C\c1ccc(-c2cccc(C(=O)O)c2)o1 [CBK263483] | 111.114%
36 | COc1cccc(Cc2c(C)nc3c(C(=O)NCC4COc5ccccc5O4)cnn3c2C)c1 (stereo not shown) [CBK162064] | 100.235%
37 | CC(C)C(=O)Nc1ccc2c(-c3ccc4c(c3)OCCCO4)ccnc2n1 [CBK073675] | 121.207%
38 | CC(=O)Nc1ccc(CNc2ccc(C#N)cn2)cc1 [CBK297790] | 130.487%
39 | O=C(c1ccccc1C(F)(F)F)N1CCC(n2c(=O)[nH]c3ccccc32)CC1 [CBK149706] | 77.3286%
40 | CCOC(=O)COc1c(Cl)cc(/C=C/c2[nH]c(=O)[nH]c(=O)c2[N+](=O)[O-])cc1Cl [CBK267003] | 118.031%
41 | O=C(c1ccoc1)N1CCC2(CCCN(Cc3ccc4ccccc4c3)C2)C1 (stereo not shown) [CBK132811] | 70.4231%
42 | CC(=O)N[C@H]1CO[C@H]2[C@@H]1OC[C@@H]2Nc1nccc(-c2cccc(F)c2)n1 [CBK289534] | 103.231%
43 | COc1ccc(C(C)C)cc1-c1cn2ccnc2c(NC2CCOCC2)n1 [CBK066320] | 146.611%
44 | COc1ccc2nc(-n3nc(C(=O)NCc4ccncc4)c4ccccc43)sc2c1 [CBK048521] | 118.392%
45 | Cc1cc(/C=C(/C#N)c2cccc(F)c2)c(C)n1-c1ccc(S(N)(=O)=O)cc1 [CBK268268] | 93.777%
46 | O=C(O)c1cccc(NC(=O)c2ccc(COc3ccc(-c4ccccc4)cc3)o2)c1 [CBK299778] | 135.719%
47 | O=C(Nc1nnc(C2=COCCO2)o1)c1ccco1 [CBK287412] | 142.866%
48 | CCN(Cc1ccccc1)c1ccc(C2NC(=O)NC(O)(C(F)(F)F)C2C(=O)c2cccnc2)cc1 (stereo not shown) [CBK264999] | 140.429%
49 | CCCc1nnc(C(=O)NC(=O)NCCCN(C)C)s1 [CBK018853] | 113.154%

Rewritten in markdown: part of the list above.

| Row | Structure (SMILES) | % of control remaining |
| --- | --- | --- |
| 31 | CN(C)S(=O)(=O)Nc1cccc2cc[nH]c12 [CBK159505] | 96.7631% |
| 32 | COc1ncc(C(=O)NCc2cccnc2N(C)C2CCCCC2)cn1 [CBK306870] | 174.897% |
| 46 | O=C(O)c1cccc(NC(=O)c2ccc(COc3ccc(-c4ccccc4)cc3)o2)c1 [CBK299778] | 135.719% |
